In publication PMC3561454 one finds binding data, which are given here for one substance.

By UniProt entry, the sequences of proteins in these tests, tags left out.
UniProt P41240: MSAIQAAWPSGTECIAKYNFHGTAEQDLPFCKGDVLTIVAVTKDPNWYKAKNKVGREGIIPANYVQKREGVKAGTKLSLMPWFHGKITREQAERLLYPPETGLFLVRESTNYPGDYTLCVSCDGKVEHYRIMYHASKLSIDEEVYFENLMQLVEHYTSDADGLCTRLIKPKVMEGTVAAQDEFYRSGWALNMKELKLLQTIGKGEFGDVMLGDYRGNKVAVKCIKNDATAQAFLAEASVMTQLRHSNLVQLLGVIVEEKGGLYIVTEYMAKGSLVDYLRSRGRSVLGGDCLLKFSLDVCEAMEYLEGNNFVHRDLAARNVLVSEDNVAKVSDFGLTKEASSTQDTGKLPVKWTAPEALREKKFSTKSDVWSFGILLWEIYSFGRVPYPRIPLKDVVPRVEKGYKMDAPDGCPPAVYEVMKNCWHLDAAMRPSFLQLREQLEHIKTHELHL

This assay deals with T1, GFP-p140Cap double mutant (p140 EPLY/FA, EGLY/FA) (human) (UniProt Q9C0H9).
T1 sequence: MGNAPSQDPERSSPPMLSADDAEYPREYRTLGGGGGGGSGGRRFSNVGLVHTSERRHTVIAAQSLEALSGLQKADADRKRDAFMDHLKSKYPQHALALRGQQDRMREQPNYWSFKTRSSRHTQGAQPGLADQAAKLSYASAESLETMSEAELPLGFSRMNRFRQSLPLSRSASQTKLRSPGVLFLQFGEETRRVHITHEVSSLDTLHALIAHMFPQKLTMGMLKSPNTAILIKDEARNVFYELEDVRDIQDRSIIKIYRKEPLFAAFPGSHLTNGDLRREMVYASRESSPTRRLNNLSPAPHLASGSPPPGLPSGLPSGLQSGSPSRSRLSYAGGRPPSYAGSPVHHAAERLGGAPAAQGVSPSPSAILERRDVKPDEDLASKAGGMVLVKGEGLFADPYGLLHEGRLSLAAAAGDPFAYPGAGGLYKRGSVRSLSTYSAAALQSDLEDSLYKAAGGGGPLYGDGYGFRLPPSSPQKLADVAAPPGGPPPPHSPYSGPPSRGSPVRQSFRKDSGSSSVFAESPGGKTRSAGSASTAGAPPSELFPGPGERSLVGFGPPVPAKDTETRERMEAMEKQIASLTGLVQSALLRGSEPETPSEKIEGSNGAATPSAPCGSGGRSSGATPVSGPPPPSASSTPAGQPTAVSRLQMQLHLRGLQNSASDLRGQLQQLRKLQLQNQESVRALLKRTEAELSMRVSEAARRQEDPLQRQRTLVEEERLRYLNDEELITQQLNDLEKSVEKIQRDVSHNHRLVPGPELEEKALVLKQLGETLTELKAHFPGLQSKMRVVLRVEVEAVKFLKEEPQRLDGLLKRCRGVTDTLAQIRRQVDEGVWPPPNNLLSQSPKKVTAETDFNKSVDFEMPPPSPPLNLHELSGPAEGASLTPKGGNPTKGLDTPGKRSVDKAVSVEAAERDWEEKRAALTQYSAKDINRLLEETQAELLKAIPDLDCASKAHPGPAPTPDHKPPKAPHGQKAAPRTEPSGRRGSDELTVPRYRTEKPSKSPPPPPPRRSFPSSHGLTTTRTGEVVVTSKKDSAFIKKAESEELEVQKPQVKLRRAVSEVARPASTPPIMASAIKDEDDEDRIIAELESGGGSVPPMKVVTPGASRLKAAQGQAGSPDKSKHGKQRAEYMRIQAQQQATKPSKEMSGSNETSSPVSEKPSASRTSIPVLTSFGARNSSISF
Nature of the assay: co-IP; extracts of transfected HEK-293 cells (1% Triton X-100 lysis buffer) incubated overnight at 4°C with Dynabeads cross-linked to p140Cap monoclonal antibody; blot for Csk; cells treated with 100 micromolar pervanadate for 5 min, or starved overnight and treated with 20% FBS for 0, 5, 15 min.

No constants are given. Whether binding was seen depends on the method and setting. In cells and extracts the contact can be indirect. Tags and fused reporters may be left off the sequences shown.

Take “C-terminal Src kinase (Csk), endogenous (from UniProt P41240 1-450) (enzyme)”: the binding entry is “no binding”.
